Measured values from the supplement of paper PMC10849652.
This is one part of the list.

Chains of the proteins cited; added tags and fusions are not shown. Lines headed by an entry give the natural chain unless they say otherwise; changes in a name come on top.
UniProt Q9Y5K8, whole entry, looked up: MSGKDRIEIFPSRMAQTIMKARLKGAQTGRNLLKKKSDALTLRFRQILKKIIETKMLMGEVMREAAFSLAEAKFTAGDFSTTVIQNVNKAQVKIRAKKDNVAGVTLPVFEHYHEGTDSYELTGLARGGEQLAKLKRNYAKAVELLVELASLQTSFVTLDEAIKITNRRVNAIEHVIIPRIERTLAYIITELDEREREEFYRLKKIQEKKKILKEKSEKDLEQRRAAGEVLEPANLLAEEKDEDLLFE
UniProt Q9BPX5, whole entry, looked up: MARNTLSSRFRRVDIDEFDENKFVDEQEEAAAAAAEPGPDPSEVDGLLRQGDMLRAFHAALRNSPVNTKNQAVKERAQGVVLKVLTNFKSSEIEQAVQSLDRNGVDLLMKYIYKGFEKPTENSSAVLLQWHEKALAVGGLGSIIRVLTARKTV
UniProt Q8NB49: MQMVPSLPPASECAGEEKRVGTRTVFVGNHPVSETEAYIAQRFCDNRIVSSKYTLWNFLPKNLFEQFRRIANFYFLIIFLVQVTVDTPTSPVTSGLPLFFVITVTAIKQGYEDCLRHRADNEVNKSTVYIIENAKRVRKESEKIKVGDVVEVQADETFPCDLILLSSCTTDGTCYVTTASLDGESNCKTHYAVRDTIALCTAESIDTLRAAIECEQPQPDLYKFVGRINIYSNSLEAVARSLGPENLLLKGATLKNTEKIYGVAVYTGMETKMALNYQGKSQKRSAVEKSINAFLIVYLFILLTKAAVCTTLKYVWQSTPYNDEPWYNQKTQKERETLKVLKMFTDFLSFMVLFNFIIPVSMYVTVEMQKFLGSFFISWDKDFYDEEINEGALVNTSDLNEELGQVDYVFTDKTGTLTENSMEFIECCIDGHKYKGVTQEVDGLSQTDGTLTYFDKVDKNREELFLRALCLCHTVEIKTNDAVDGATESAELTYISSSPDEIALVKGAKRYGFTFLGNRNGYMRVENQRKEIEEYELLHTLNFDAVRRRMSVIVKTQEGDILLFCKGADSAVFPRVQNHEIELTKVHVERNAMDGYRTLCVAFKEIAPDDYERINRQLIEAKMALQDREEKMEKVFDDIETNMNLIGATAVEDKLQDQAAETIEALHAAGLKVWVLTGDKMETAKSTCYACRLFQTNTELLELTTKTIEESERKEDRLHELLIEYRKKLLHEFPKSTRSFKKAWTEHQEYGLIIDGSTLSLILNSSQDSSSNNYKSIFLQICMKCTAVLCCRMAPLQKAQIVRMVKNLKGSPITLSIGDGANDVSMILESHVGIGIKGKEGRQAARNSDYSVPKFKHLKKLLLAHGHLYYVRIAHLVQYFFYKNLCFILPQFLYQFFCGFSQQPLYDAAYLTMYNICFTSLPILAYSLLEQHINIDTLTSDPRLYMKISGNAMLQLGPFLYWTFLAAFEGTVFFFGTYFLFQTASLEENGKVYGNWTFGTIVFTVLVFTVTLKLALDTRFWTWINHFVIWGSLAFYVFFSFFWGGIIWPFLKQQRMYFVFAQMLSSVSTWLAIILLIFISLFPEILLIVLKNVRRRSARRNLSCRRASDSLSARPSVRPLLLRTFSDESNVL
UniProt P56381: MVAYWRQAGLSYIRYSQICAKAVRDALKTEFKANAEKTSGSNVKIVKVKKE
UniProt Q8IZT6: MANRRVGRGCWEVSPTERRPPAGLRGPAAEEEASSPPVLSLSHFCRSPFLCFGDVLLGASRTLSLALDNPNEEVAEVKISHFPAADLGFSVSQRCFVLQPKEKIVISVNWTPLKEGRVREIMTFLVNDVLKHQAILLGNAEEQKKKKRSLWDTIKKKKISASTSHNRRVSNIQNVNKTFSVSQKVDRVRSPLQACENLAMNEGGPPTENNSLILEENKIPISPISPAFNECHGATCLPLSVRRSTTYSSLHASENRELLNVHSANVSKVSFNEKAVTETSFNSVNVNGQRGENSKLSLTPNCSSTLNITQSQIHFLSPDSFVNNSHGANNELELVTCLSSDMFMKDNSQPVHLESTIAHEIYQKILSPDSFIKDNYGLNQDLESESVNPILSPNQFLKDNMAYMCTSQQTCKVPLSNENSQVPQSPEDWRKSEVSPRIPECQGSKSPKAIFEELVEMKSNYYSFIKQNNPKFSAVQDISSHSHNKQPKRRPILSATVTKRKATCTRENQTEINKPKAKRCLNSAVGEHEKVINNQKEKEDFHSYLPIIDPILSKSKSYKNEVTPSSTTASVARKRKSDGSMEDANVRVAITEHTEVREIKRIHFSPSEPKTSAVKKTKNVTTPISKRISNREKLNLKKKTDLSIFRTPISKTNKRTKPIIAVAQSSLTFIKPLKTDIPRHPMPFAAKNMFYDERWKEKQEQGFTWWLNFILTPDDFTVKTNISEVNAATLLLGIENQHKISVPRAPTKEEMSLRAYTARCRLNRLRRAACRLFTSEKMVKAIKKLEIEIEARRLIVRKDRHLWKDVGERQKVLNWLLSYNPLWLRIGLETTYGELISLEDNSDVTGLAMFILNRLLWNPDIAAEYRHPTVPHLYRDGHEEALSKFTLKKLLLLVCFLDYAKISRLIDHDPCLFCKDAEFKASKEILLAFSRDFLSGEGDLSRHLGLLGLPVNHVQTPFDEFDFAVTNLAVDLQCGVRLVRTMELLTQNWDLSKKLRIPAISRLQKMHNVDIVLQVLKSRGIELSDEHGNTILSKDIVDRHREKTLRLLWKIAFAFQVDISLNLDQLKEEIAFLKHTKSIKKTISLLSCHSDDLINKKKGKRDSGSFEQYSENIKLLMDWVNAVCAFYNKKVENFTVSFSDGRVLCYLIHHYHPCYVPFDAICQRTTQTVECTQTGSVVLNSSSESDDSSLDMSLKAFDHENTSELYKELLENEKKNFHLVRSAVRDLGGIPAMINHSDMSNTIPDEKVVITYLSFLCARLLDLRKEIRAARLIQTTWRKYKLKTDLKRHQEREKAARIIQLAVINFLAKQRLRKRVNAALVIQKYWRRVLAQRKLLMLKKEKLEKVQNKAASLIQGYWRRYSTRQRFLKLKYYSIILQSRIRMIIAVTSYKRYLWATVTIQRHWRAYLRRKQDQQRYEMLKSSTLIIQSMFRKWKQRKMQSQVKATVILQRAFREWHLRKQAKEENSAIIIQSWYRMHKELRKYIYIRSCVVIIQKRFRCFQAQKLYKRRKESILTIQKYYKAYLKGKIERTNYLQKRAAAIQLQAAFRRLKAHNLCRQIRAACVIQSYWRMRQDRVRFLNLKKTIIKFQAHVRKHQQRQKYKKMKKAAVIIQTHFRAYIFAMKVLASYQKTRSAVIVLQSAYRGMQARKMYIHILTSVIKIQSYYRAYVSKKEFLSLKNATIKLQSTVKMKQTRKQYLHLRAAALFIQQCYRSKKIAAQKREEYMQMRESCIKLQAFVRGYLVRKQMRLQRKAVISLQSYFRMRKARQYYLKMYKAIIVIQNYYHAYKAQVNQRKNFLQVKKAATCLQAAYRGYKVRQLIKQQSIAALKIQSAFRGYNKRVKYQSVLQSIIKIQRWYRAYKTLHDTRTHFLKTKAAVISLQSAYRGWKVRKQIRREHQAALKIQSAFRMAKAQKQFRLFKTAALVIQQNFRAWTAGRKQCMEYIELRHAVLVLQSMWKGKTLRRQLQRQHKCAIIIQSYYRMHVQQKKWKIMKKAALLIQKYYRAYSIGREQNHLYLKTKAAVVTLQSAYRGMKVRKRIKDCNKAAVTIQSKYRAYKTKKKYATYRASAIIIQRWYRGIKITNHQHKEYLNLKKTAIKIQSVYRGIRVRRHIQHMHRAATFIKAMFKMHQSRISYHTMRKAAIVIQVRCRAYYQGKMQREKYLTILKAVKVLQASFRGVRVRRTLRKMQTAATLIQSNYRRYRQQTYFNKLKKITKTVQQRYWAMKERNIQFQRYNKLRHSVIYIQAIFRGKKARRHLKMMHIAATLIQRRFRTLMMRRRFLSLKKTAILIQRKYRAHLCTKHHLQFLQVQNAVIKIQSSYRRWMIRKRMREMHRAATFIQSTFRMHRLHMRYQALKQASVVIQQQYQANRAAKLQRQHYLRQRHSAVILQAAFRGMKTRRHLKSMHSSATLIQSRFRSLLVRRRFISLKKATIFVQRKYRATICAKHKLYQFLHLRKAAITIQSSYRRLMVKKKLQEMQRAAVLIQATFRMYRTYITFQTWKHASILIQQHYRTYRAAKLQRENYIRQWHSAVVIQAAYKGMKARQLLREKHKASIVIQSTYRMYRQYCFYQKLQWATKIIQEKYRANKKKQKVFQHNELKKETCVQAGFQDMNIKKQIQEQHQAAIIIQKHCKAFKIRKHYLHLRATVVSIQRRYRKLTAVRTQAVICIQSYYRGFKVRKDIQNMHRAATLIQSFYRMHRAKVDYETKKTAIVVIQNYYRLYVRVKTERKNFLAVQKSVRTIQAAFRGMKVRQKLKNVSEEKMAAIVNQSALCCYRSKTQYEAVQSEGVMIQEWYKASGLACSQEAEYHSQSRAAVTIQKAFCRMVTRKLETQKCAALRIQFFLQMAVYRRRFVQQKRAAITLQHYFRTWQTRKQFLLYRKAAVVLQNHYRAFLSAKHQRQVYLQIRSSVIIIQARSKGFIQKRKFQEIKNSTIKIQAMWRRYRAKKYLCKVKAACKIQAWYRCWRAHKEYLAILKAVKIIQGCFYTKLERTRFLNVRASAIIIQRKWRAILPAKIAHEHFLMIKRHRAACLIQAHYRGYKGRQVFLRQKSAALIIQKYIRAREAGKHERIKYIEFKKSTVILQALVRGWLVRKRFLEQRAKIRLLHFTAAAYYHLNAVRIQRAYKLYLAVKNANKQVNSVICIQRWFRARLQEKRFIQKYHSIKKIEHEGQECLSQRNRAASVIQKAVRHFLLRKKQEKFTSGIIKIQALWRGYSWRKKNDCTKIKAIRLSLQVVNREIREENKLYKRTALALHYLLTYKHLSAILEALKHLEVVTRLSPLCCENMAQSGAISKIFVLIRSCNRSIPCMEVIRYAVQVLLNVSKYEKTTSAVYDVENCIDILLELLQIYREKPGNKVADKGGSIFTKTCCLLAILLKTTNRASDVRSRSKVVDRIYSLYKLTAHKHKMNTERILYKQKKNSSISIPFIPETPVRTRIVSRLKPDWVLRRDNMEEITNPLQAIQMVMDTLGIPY
UniProt P21281, whole entry, looked up: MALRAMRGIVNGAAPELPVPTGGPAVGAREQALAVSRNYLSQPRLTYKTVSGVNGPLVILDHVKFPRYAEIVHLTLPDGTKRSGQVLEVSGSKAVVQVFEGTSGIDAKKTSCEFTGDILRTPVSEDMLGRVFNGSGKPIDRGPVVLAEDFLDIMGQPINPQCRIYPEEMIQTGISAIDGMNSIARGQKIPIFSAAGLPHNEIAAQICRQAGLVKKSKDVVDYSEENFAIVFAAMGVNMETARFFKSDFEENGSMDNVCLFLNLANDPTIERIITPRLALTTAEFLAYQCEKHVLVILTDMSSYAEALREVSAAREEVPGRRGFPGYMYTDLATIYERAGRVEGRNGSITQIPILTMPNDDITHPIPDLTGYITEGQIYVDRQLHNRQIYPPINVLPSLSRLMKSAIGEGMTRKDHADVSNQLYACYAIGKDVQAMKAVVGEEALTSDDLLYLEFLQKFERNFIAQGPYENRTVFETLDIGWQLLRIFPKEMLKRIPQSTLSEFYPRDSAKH
UniProt Q9Y689: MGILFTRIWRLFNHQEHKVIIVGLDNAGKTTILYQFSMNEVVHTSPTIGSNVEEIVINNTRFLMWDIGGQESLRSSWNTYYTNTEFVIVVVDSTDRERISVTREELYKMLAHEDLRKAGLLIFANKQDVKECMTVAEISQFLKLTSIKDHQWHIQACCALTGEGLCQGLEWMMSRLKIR
UniProt O75143: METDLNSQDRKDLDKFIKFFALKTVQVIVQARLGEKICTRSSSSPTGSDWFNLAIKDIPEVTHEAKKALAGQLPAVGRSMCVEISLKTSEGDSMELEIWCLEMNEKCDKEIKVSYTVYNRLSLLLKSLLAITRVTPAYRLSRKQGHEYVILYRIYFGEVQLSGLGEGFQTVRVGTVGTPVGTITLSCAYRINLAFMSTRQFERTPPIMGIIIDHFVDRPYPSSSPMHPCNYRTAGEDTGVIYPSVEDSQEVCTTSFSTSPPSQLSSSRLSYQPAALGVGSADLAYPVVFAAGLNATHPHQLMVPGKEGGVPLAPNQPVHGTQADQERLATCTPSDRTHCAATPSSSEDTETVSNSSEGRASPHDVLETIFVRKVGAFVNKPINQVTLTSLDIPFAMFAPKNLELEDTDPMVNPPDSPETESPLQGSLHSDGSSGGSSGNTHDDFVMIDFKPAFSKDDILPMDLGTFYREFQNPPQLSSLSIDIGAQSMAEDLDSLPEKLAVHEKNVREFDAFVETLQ
UniProt Q8N5M1: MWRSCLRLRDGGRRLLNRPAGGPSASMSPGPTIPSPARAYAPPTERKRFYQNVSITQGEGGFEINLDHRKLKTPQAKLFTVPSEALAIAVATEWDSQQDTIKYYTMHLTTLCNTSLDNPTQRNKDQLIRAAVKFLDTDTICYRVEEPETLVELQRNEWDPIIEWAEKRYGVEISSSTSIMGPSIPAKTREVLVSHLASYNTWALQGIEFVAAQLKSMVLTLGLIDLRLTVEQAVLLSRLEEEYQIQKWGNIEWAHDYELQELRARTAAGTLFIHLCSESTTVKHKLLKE

What follows are targets tested with C[C@H](C1=CC=C(C=C1)C(=O)NC2=C3C=CNC3=NC=C2)N (assay: log2 fold change, soluble protein after heating vs DMSO (PISA); higher = thermal stabilisation; K562 cells, 10 uM, 30 min; active = over 0.2 and 3.5 SD of the protein, either way, in both replicates (recomputed)).
Outline: (§1)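 Aliquots of K562 cells (2×10^6 cells/mL) treated with 10 μM compound for 30 min were heated for 3 min over 48°C-58°C. After pooling and extraction in PBS with 0.5% NP-40 at 4°C, soluble protein from a 21,000xg, 90 min spin was quantified by TMTpro 16plex LC-MS/MS with channel sums equalised. Thermal stability is expressed against control samples, from duplicates, as a log2 fold change.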

log2 fold change, inactive:
ATP6V1D (UniProt Q9Y5K8) 0.061, ARPC5L (UniProt Q9BPX5) -0.098, ATP11C (UniProt Q8NB49) -0.066, ATP5F1E (UniProt P56381) -0.053, ATP5PO (UniProt P48047) -0.014, ASPM (UniProt Q8IZT6) -0.11, ATP11B (UniProt Q9Y2G3) -0.019, ATP6V1B2 (UniProt P21281) 0.03, ARL5A (UniProt Q9Y689) 0.009, ASF1B (UniProt Q9NVP2) 0.128, ARRB1 (UniProt P49407) -0.218, ATP5MG (UniProt O75964) 0.125, ARPC4 isoform 3 (UniProt P59998) -0.07, ATG13 isoform 5 (UniProt O75143) 0.025, ATPAF2 (UniProt Q8N5M1) 0.015

What follows are targets tested with C[C@H](Nc1ncnc2nc[nH]c12)c1cc2cccc(Cl)c2c(=O)n1-c1ccccc1 [duvelisib] in the same assay as above.
Outline: as §1

log2 fold change, inactive:
ATG4C (UniProt Q96DT6) 0.045, ARL6IP5 (UniProt O75915) 0.031, ATE1 isoform 2 (UniProt O95260) 0.113, ATP5MPL (UniProt P56378) 0.037, ATP13A1 (UniProt Q9HD20) 0.038, ARNT (UniProt P27540) -0.046, ATP5PF isoform 2 (UniProt P18859) 0.068, ATP2A2 (UniProt P16615) 0.015, ARIH2 (UniProt O95376) 0.008, ATP7A isoform 3 (UniProt Q04656) 0.021, ATP5F1C (UniProt P36542) 0.025, ARMCX3 (UniProt Q9UH62) 0.012, ARL6IP1 (UniProt Q15041) -0.026, ASDURF (UniProt L0R819) 0.01, ATG12 (UniProt O94817) 0.035, ASNA1 (UniProt O43681) 0.047, ATP5PD (UniProt O75947) -0.013, ASMTL (UniProt O95671) 0.012, ATN1 (UniProt P54259) -0.024, ARL2 (UniProt P36404) 0.072, ASAP1 isoform 2 (UniProt Q9ULH1) 0.01, ATP6V0D1 (UniProt P61421) -0.039, ATP6V1D (UniProt Q9Y5K8) -0.022, ARPC5L (UniProt Q9BPX5) 0, ATP11C (UniProt Q8NB49) 0.014, ATP5F1E (UniProt P56381) -0.001, ATP5PO (UniProt P48047) -0.01, ASPM (UniProt Q8IZT6) 0.019, ATP11B (UniProt Q9Y2G3) -0.007, ATP6V1B2 (UniProt P21281) -0.015, ARL5A (UniProt Q9Y689) 0.028, ASF1B (UniProt Q9NVP2) 0.05, ARRB1 (UniProt P49407) 0.023, ATP5MG (UniProt O75964) 0.066, ARPC4 isoform 3 (UniProt P59998) 0.014, ATG13 isoform 5 (UniProt O75143) 0.054, ATPAF2 (UniProt Q8N5M1) -0.029

What follows are targets tested with Cc1cc(Nc2cc(CN3CCOCC3)c3nc(C)c(Cc4ccc(Cl)cc4F)n3n2)n[nH]1 [gandotinib] in the same assay as above.
Outline: as §1

log2 fold change, inactive:
ATG4C (UniProt Q96DT6) -0.05, ARL6IP5 (UniProt O75915) -0.046, ATE1 isoform 2 (UniProt O95260) 0.216, ATP5MPL (UniProt P56378) -0.028, ATP13A1 (UniProt Q9HD20) -0.037, ARNT (UniProt P27540) -0.053, ATP5PF isoform 2 (UniProt P18859) 0.163, ATP2A2 (UniProt P16615) -0.039, ARIH2 (UniProt O95376) 0.028, ATP7A isoform 3 (UniProt Q04656) 0.003, ATP5F1C (UniProt P36542) 0.018, ARMCX3 (UniProt Q9UH62) 0.059, ARL6IP1 (UniProt Q15041) 0.026, ASDURF (UniProt L0R819) 0.045, ATG12 (UniProt O94817) -0.201, ASNA1 (UniProt O43681) 0.002, ATP5PD (UniProt O75947) -0.013, ASMTL (UniProt O95671) -0.09, ATN1 (UniProt P54259) -0.002, ARL2 (UniProt P36404) -0.085, ASAP1 isoform 2 (UniProt Q9ULH1) 0.035, ATP6V0D1 (UniProt P61421) 0.203, ATP6V1D (UniProt Q9Y5K8) 0.023, ARPC5L (UniProt Q9BPX5) 0, ATP11C (UniProt Q8NB49) -0.006, ATP5F1E (UniProt P56381) 0.042, ATP5PO (UniProt P48047) -0.006, ASPM (UniProt Q8IZT6) -0.206, ATP11B (UniProt Q9Y2G3) 0.057, ATP6V1B2 (UniProt P21281) 0.109, ARL5A (UniProt Q9Y689) 0.159, ASF1B (UniProt Q9NVP2) -0.058, ARRB1 (UniProt P49407) -0.005, ATP5MG (UniProt O75964) 0.127, ARPC4 isoform 3 (UniProt P59998) 0.022, ATG13 isoform 5 (UniProt O75143) 0.219, ATPAF2 (UniProt Q8N5M1) -0.021
